Measurements published in the supplement of paper PMC12889115.
Some of the results follow. These are raw signals, not scaled to a control.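 Primary screen: polymyxin B was added at a level permeabilizing Salmonella outer membranes while sparing inner membranes. DMSO wells, both with and without polymyxin B, established maximum growth. Plate-to-plate variation meant each plate was ranked on its own, and the lowest-OD600 compounds were selected as hits.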

Test system: Salmonella enterica serovar Typhimurium SL1344
Assay: bacterial growth OD600 after 18 h with compound and polymyxin B; higher = more bacterial growth (less inhibition)
Conditions: 50 µM, Mueller-Hinton broth

| SMILES | bacterial growth OD600 (polymyxin B 1 µg/mL) | bacterial growth OD600 (polymyxin B 0.75 µg/mL) |
| --- | --- | --- |
| COCCC(=O)NC1CC(C)(C)Cc2nc(C(C)(C)C)ncc21 (stereo not given) | 0.88 | – |
| COc1ccc(CC(=O)NCC2CCCN(Cc3cccc(SC)c3)C2)cc1 (stereo not given) | 0.797 | – |
| O=C1CCC(CCC(=O)N2CCCC2c2ccc(F)cc2)(Cc2ccc3ccccc3c2)N1 (stereo not given) | – | 0.679 |
| O=C1CCCN1CC(=O)N1CCCC(CCc2ccccc2)C1 (stereo not given) | – | 0.622 |
| O=C(NCC1CC1)C1CCCN(C2CCN(Cc3ccccc3)CC2)C1 (stereo not given) | – | 0.897 |
| COc1cccc(-c2noc(-c3ccc(N4CCN(C(C)C)CC4)nc3)n2)c1OC | – | 0.511 |
| COc1ccc(CC(=O)N2CCC3(CCCN(CC(C)(C)C)C3=O)C2)cc1 (stereo not given) | 0.812 | – |
| O=C(NC1CC1)C1CCCN(C2CCN(C(=O)CCC3CCCC3)CC2)C1 (stereo not given) | – | 0.858 |
| COc1ccc(NC(=O)CCC2CCCN(C(=O)c3cc(C)[nH]n3)C2)cc1Cl (stereo not given) | 0.995 | – |
| CCOC(=O)C1(CCCc2ccccc2)CCN(C(=O)CCc2cnn(C)c2)CC1 | 0.873 | – |
| Cn1ccnc1CN1CCC(CCC(=O)Nc2ccccc2Cl)CC1 | 0.907 | – |
| O=C(CCn1cnnn1)N1CCCC(CCc2cccc(C(F)(F)F)c2)C1 (stereo not given) | – | 0.178 |
| O=C1CCCCN1CCCC(=O)N1CCCC(CCc2ccccc2)C1 (stereo not given) | – | 0.826 |
| CCCCN(Cc1ccccc1)C(=O)COc1ccc(N2CCN(c3ccccn3)CC2)nn1 | – | 0.014 |
| CCn1nc(C)cc1C(=O)N1CCC(CCC(=O)Nc2ccc3c(c2)OCCO3)CC1 | 0.919 | – |
| CN(Cc1cc(C2CC2)[nH]n1)c1ccc(-c2nc(C3CC3)no2)cn1 | – | 0.542 |
| COc1ccccc1C(=O)N1CCC2(CCCN(CC3CC3)C2=O)C1 (stereo not given) | 0.992 | – |
| COc1cc(CN2CCC3(CC2)CC3C(=O)N(C)CCOc2ccc(C)cc2)cc(OC)c1OC (stereo not given) | – | 1.06 |
| COCCNC(=O)c1ccc(OC2CCN(C/C=C/c3ccco3)CC2)c(Cl)c1 | 1.1 | – |
| C=C(C)CNC(=O)C1CCC(=O)N(C2CCCC2)C1 (stereo not given) | 0.966 | – |
| O=C(NCC1CCCN(Cc2ccc3c(c2)OCCO3)C1)c1cc2ccccc2[nH]1 (stereo not given) | 0.852 | – |
| CCn1nc(C)c(CN2CCC(CO)(Cc3cccc(C(F)(F)F)c3)CC2)c1C | – | 0.829 |
| COc1ccc(CC2(CCC(=O)N3CCN(c4cccc(C)c4C)CC3)CCC(=O)N2)c(F)c1 (stereo not given) | – | 0.012 |
| CCC1CN(Cc2ccc(F)c(OC)c2)Cc2cc(OC)ccc2O1 (stereo not given) | – | 0.712 |
| OC(CCc1ccccc1)c1ccc2c(c1)CN(Cc1cccc3cccnc13)CCO2 (stereo not given) | – | 0.611 |
| Cc1cc(C)n(CC(=O)N(Cc2ccncc2)Cc2cccc(OCCc3ccc(F)cc3)c2)n1 | – | 0.001 |
| COc1ccc(CCN2CC(NC(=O)CC(C)C)CC2=O)cc1 (stereo not given) | 0.895 | – |
| COc1ccc(S(=O)(=O)NCc2nc(NCCCc3ccccc3)c3ccccc3n2)cc1OC | – | 0.398 |
| COC(=O)c1ccc(N2C[C@H]3OC(=O)N(Cc4ccccn4)[C@H]3C2)nc1 | 1.08 | – |
| O=C(NC1CCCC1)c1ccc(OC2CCN(C(=O)c3cccnc3)CC2)c(Cl)c1 | 1.1 | – |

2 of the compounds above, with each value named.
COCCNC(=O)c1ccc(OC2CCN(C/C=C/c3ccco3)CC2)c(Cl)c1
  bacterial growth OD600 (polymyxin B 1 µg/mL): 1.1
C=C(C)CNC(=O)C1CCC(=O)N(C2CCCC2)C1 (stereo not given)
  bacterial growth OD600 (polymyxin B 1 µg/mL): 0.966
